# Results reported in PubChem BioAssay AID493014 (National Center for Advancing Translational Sciences (NCATS), 2011).
# Some of the results follow. Further columns of the screen follow, without active or inactive calls. Compounds called inactive in the main read-out are mostly missing here. Potencies come from curve fits of mixed quality, noted in brackets.
# Assay: qHTS Assay to Find Inhibitors of Chronic Active B-Cell Receptor Signaling
# Details: ABC-DLBCL IkBa-CBG/CBR reporter, luminescence ratio (green luciferase fused to IkBa over red control in TMD8 lymphoma cells), 4 h
# Outline: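 Cell line TMD8 (human ABC DLBCL), stably expressing tet-inducible CBG68-IkBa fusion and CBR; IMDM/0.5% FBS; cpd up to 46 uM; dox induction, 4 h, 37C/5% CO2; dual luminescence; green/red ratio; MG132 control.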
# [1] = measured here: CBR red luminescence, cell number
# [2] = measured here: IkBa-CBG green luminescence
SMILES,AC50 [1],AC50 [2]
C[C@H](CO)N1C[C@H](C)[C@@H](CN(C)Cc2ccccc2)Oc2c(NC(=O)C3CCCCC3)cccc2C1=O,"18.4 µM [falling, single point]",
CCOc1cccc(-c2c(C(=O)N/N=C/c3ccncc3)nnn2-c2nonc2N)c1,"28.2 µM [falling, single point]",
CC(C)c1nnc(NC(=O)C2CCCN2C(=O)Nc2ccccc2)s1 (stereo not drawn),"3.98 µM [rising, partial curve, poor fit]",
CS(=O)(=O)Oc1ccc2c(c1)O/C(=C\C=C\c1ccccc1)C2=O,"0.178 µM [falling, full curve, poor fit]",
COc1ccc(N)cc1-n1c(C)ccc1C,"35.5 µM [rising, partial curve, poor fit]",
Cc1cccc2sc(NC(=O)c3ccc(NS(=O)(=O)c4cccs4)cc3)nc12,"9.2 µM [falling, partial curve]",
Cc1ccc(/C=C/C(=O)NC2=NCCS2)cc1,"14.6 µM [falling, single point]",
CCn1c(SCC(=O)NC(=O)NCc2ccco2)nc2sc(C)c(C)c2c1=O,,"0.651 µM [falling, full curve, poor fit]"
COc1ccc(CCC(C)NCC2CCCCC2)cc1 (stereo not drawn),"5.17 µM [rising, full curve]",
Cc1ccc(C(C)NC(=S)NCc2ccc(F)cc2)c(C)c1 (stereo not drawn),"35.5 µM [falling, single point]",
O=c1ccc2ccc(Oc3ccc([N+](=O)[O-])cc3[N+](=O)[O-])cc2o1,"20.6 µM [falling, single point]","29.1 µM [falling, partial curve, poor fit]"
Cc1ccc(-c2cc(C(=O)Nc3cc(C)on3)c3ccccc3n2)c(C)c1,"2.59 µM [falling, full curve]",
CCC(C)n1c(SCc2ccc([N+](=O)[O-])cc2)nc2ccsc2c1=O (stereo not drawn),"25.9 µM [rising, single point]",
Cc1cc(C)n(CC(C)NC(=O)c2cc(COc3ccc(F)c(F)c3)on2)n1 (stereo not drawn),"3.55 µM [falling, partial curve, poor fit]",
Cc1ccc(Sc2cc(C(=O)NCCCN(C)C)c3ccccc3n2)cc1,"35.5 µM [falling, single point]",
Cc1cc(C)cc(NS(=O)(=O)c2ccc3[nH]cc(C(=O)NCc4ccco4)c(=O)c3c2)c1,"29.1 µM [falling, single point]",
CCSc1nnc(NC(=O)c2cc(-c3ccccc3O)n[nH]2)s1,"1.26 µM [falling, full curve, poor fit]",

# Looked up one by one from the entries so far:
SMILES,AC50 [1],AC50 [2]
Cc1cc(C)cc(NS(=O)(=O)c2ccc3[nH]cc(C(=O)NCc4ccco4)c(=O)c3c2)c1,"29.1 µM [falling, single point]",
CS(=O)(=O)Oc1ccc2c(c1)O/C(=C\C=C\c1ccccc1)C2=O,"0.178 µM [falling, full curve, poor fit]",
